Source: the supplement of paper PMC7238544
Counter-ions that a name gives are not always drawn. ± gives the standard deviation of the averaged measurements. The list shows a part of the results. The data scatter; read single values as rough.

Key:
[1] = tested on: hAMSC donor 1; assay: Hoechst total cell count ratio vs vehicle control; higher = more cells (less toxicity)
[2] = tested on: hAMSC donor 2; assay: as above
[3] = tested on: hAMSC donor 1; assay: transgenic luciferase activity (RLU/mg protein) fold change vs vehicle control (ratio); higher = more transgene expression
[4] = tested on: hAMSC donor 2; assay: as above
[5] = tested on: hAMSC donor 1; assay: transfection efficiency (EGFP+ cells / Hoechst count) fold change vs vehicle control (ratio); hAMSC are human adipose-derived mesenchymal stem cells given an EGFP-luciferase plasmid by lipofection; higher = enhanced transfection
[6] = tested on: hAMSC donor 2; assay: as above
[7] = priming compound concentration 0.2 µM
[8] = priming compound concentration 1.7 µM
[9] = priming compound concentration 13 µM

Row | SMILES | Hoechst total cell count ratio [1, 7] | Hoechst total cell count ratio [1, 8] | Hoechst total cell count ratio [1, 9] | Hoechst total cell count ratio [2, 7] | Hoechst total cell count ratio [2, 8] | Hoechst total cell count ratio [2, 9] | transgenic luciferase activity [3, 8] | transgenic luciferase activity [4, 8] | transgenic luciferase activity [4, 9] | transfection efficiency [5, 7] | transfection efficiency [5, 8] | transfection efficiency [5, 9] | transfection efficiency [6, 7] | transfection efficiency [6, 8] | transfection efficiency [6, 9] | transgenic luciferase activity [3, 9] | transgenic luciferase activity [4, 7] | transgenic luciferase activity [3, 7]
1 | CC1CNc2c(cccc2S(=O)(=O)N[C@@H](CCCNC(=N)N)C(=O)N2CC[C@@H](C)C[C@@H]2C(=O)O)C1 (some centres not stated) [Argatroban] | 1.18 ± 0.078 | 1.23 ± 0.13 | 1.22 ± 0.24 | 1.12 ± 0.12 | 1.11 ± 0.041 | 1.08 ± 0.13 | 1.72 ± 0.6 | 0.316 ± 0.17 | 0.504 ± 0.061 | 1.27 ± 0.21 | 1.08 ± 0.11 | 1.19 ± 0.2 | 0.972 ± 0.24 | 0.909 ± 0.054 | 1.23 ± 0.092 | – | – | –
2 | CC(C(=O)O)c1cccc(C(=O)c2ccccc2)c1 (configuration not stated) [Ketoprofen] | – | – | – | – | – | – | – | – | 0.391 ± 0.12 | 0.748 ± 0.22 | 0.833 ± 0.17 | 1.2 ± 0.41 | 1.57 ± 0.12 | 0.671 ± 0.056 | 0.942 ± 0.17 | 1.03 ± 0.067 | 0.699 ± 0.13 | –
3 | CCN(CC)CCCC(C)Nc1c2ccc(Cl)cc2nc2ccc(OC)cc12 (configuration not stated) [Quinacrine hydrochloride hydrate] | 1.3 ± 0.096 | 1.16 ± 0.06 | 0.634 ± 0.035 | 0.975 ± 0.072 | 0.982 ± 0.037 | 0.292 ± 0.047 | – | – | – | – | – | – | – | – | – | – | 1.04 ± 0.065 | 1.44 ± 0.47
4 | Cc1cnc(C(=O)NCCc2ccc(S(=O)(=O)NC(=O)NC3CCCCC3)cc2)cn1 [Glipizide] | 1.2 ± 0.11 | 1.12 ± 0.035 | 1.02 ± 0.17 | 0.962 ± 0.19 | 1.49 ± 0.043 | 1.37 ± 0.075 | 0.915 ± 0.23 | 1.15 ± 0.29 | – | 0.9 ± 0.058 | 0.914 ± 0.12 | 0.908 ± 0.47 | 1.13 ± 0.28 | 0.894 ± 0.069 | 0.793 ± 0.052 | – | 1.05 ± 0.37 | –
5 | CC(C)NCC(O)c1ccc(O)c(O)c1 (configuration not stated) [Isoproterenol hydrochloride] | 1.33 ± 0.022 | 1.55 ± 0.078 | 1.27 ± 0.072 | 1.11 ± 0.12 | 1.07 ± 0.092 | 1.18 ± 0.13 | – | – | 0.752 ± 0.16 | 0.97 ± 0.1 | 0.894 ± 0.21 | 0.738 ± 0.17 | 1.15 ± 0.065 | 0.843 ± 0.058 | 1.04 ± 0.13 | 0.606 ± 0.067 | 0.6 ± 0.32 | –
